The record followed here is PubChem BioAssay AID256 (DTP/NCI, 2004).

The structures appear in SMILES notation. The list does not hold the whole screen: it gathers tests that were run many times, whatever their T/C, doses with no T/C, and many T/C values between a quarter and a half above the control. Other doses and runs of a compound stand elsewhere. T/C: endpoint of the treated group in % of that of the vehicle group. Some entries give survivors of the animals treated and no T/C: the source files T/C as zero there, which appears to mark a toxic dose or a test without result, not a measured value. Some survivor counts are full or nearly so, which does not show that the dose was tolerated: survival well below the control is almost never listed, so the zero probably covers shortened survival too. Survivors were counted at the toxicity check, usually on the fifth day, unless a day is given; later deaths do not show. Schedule codes are those of the source, read here as Q, the interval in days (D) or hours (H), X, the number of doses. Some doses were run more than once; the values are given in rising order. Where survival is the endpoint, this PubChem deposit counts one and a half times the control or more as active, and values a quarter to a half above the control carry no call in these data; other NCI protocols may use other cut-offs. Marks such as (2×) count equal records among those shown. Some T/C values are followed by the survivors on the day toxicity was checked, most often the fifth; where none is given, no animal had died by that day.

The test system of the experiment is CD2F1 mice, L1210 leukemia ip, survival T/C. Put plainly: NCI In Vivo Anticancer Drug Screen. Data for tumor model L1210 Leukemia (intraperitoneal) in CD2F1 (CDF1) mice. As to conditions: higher T/C = longer survival. Put shortly:
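Tumor-bearing mice (transplanted tumor) were split into treated and vehicle control groups, and the measured endpoint of each treated group was divided by that of its vehicle controls.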

Setting [1] is: T/C endpoint: mean survival time, dose: 10.0 mg/kg/injection, schedule: Q01DX009 (ip), vehicle: saline with Tween-80.
The mark [2] stands for this setting: T/C endpoint: mean survival time, dose: 200.0 mg/kg/injection, schedule: Q04DX003 (ip), vehicle: saline with Tween-80.
The mark [3] stands for this setting: T/C endpoint: mean survival time, dose: 400.0 mg/kg/injection, schedule: Q04DX003 (ip), vehicle: saline with Tween-80.
Where [4] appears, read: T/C endpoint: mean survival time, dose: 100.0 mg/kg/injection, schedule: Q01DX009 (ip), vehicle: saline with Tween-80.
[5] abbreviates: T/C endpoint: mean survival time, dose: 200.0 mg/kg/injection, schedule: Q01DX009 (ip), vehicle: saline with Tween-80.
Setting [6] is: T/C endpoint: mean survival time, dose: 400.0 mg/kg/injection, schedule: Q01DX009 (ip), vehicle: saline with Tween-80.
The mark [7] stands for this setting: T/C endpoint: mean survival time, dose: 400.0 mg/kg/injection, schedule: Q01DX001 (ip), vehicle: saline with Tween-80.
The mark [8] stands for this setting: T/C endpoint: mean survival time, dose: 75.0 mg/kg/injection, schedule: Q01DX001 (ip), vehicle: saline.
[9] abbreviates: T/C endpoint: mean survival time, dose: 150.0 mg/kg/injection, schedule: Q01DX001 (ip), vehicle: saline.
[10] abbreviates: T/C endpoint: mean survival time, dose: 300.0 mg/kg/injection, schedule: Q01DX001 (ip), vehicle: saline.
The mark [11] stands for this setting: T/C endpoint: mean survival time, dose: 200.0 mg/kg/injection, schedule: Q01DX001 (ip), vehicle: saline with Tween-80.
The mark [12] stands for this setting: T/C endpoint: mean survival time, dose: 40.0 mg/kg/injection, schedule: Q01DX009 (ip), vehicle: saline.
Where [13] appears, read: T/C endpoint: mean survival time, dose: 60.0 mg/kg/injection, schedule: Q01DX009 (ip), vehicle: saline.

In the case of `[Cl][Pt+2][Cl].[NH-]c1ccc(Cl)cc1[NH-]`, the T/C is, setting by setting: (T/C endpoint: mean survival time, dose: 5.0 mg/kg/injection, schedule: Q01DX009 (ip), vehicle: saline with Tween-80) 140 % of control; under setting [1], 140 % of control (2×). For the same compound, the survivor count (T/C endpoint: mean survival time, dose: 40.0 mg/kg/injection, schedule: Q01DX009 (ip), vehicle: saline with Tween-80) is 8 of 8 and the survivor count (T/C endpoint: mean survival time, dose: 80.0 mg/kg/injection, schedule: Q01DX009 (ip), vehicle: saline with Tween-80) is on record as 7 of 8.

With `C[N+](C)(C)CC(=O)N/N=C\c1c(O)ccc2ccccc12`, the survivor count runs as follows: under setting [2], 2 of 3; under setting [3], 0 of 3.

On to `O=C(Nc1ccc(N=C=S)cc1Cl)c1cc(Cl)cc(Cl)c1O`, for which the survivor count (T/C endpoint: mean survival time, dose: 100.0 mg/kg/injection, schedule: Q01DX009 (ip), vehicle: Klucel (hydroxypropylcellulose) (HPC)) was 0 of 6; the survivor count (T/C endpoint: mean survival time, dose: 200.0 mg/kg/injection, schedule: Q01DX009 (ip), vehicle: Klucel (hydroxypropylcellulose) (HPC)) is 0 of 6 and 4 of 6.

`CC([NH-])C([NH-])O.O=[N+]([O-])O.O=[N+]([O-])O.[Pt+2]` (stereo unspecified): where the note is “T/C endpoint: mean survival time, dose: 6.25 mg/kg/injection, schedule: Q04DX003 (ip), vehicle: saline”, the T/C was 139 % of control.

For the compound `c1ccc(C(c2ccccc2)c2ccccc2)cc1`, the survivor count under setting [3] is given as 6 of 6.

Regarding `C=C1N(C)c2ccccc2C1(C)C`, the survivor count is on record as 2 of 6 (T/C endpoint: mean survival time, dose: 25.0 mg/kg/injection, schedule: Q01DX009 (ip), vehicle: saline with Tween-80); 5 of 6 under setting [4]; 0 of 6 under setting [5]; 0 of 6 under setting [6].

As for `N#CCC(=O)O`, under “T/C endpoint: mean survival time, dose: 150.0 mg/kg/injection, schedule: Q04DX003 (ip), vehicle: saline”, the survivor count was 6 of 6.

`Nc1ccc(CSc2ccc(Cl)cc2)cc1`: the survivor count is 3 of 3 (T/C endpoint: mean survival time, dose: 100.0 mg/kg/injection, schedule: Q04DX002 (ip), vehicle: Klucel (hydroxypropylcellulose) (HPC)) and 3 of 3 (T/C endpoint: mean survival time, dose: 200.0 mg/kg/injection, schedule: Q04DX002 (ip), vehicle: Klucel (hydroxypropylcellulose) (HPC)).

For `O=C(c1ccc(-c2ccccc2)cc1)C(Br)C(Br)c1ccccc1` (stereo unspecified), the survivor count (T/C endpoint: mean survival time, dose: 25.0 mg/kg/injection, schedule: Q01DX009 (ip), vehicle: water) was 6 of 6.

As for `COCC(O)CN1CCN(c2cccc3c2CCCC3)CC1` (stereo unspecified), the survivor count under setting [7] is reported as 0 of 6.

For the compound `Cc1cc(I)cs1`, under “T/C endpoint: mean survival time, dose: 400.0 mg/kg/injection, schedule: Q01DX001 (ip), vehicle: saline”, the survivor count is listed as 1 of 6.

`COc1cc(OC)c2c(c1Cl)OC(C(C)=O)C2=O` (stereo unspecified): under setting [3], the survivor count is on record as 6 of 6.

In the case of `CC(C)COC(=N)c1ccccc1C1(O)CCCCC1`, the survivor count under setting [3] was 0 of 6.

Consider `CCC[CH2][Sn]([CH2]C)([CH2]C)[O]C(C)=O`, for which, under setting [1], the survivor count is listed as 0 of 6.

As to `CC(=O)OC1C=CC(OC(C)=O)O1` (stereo unspecified), the survivor count runs as follows: (T/C endpoint: mean survival time, dose: 15.0 mg/kg/injection, schedule: Q01DX001 (ip), vehicle: saline) 3 of 6; (T/C endpoint: mean survival time, dose: 30.0 mg/kg/injection, schedule: Q01DX001 (ip), vehicle: saline) 0 of 6; under setting [8], 0 of 6; under setting [9], 0 of 6; under setting [10], 0 of 6.

Regarding `[Br][Pt+2][Br].[NH-]c1ccccc1F.[NH-]c1ccccc1F`, where the note is “T/C endpoint: mean survival time, dose: 200.0 mg/kg/injection, schedule: Q04DX003 (ip), vehicle: distilled water + Tween-80”, the survivor count was 4 of 6.

For the compound `Nc1[nH]c(=O)ncc1C(=O)NC(CO)C(=O)O` (stereo unspecified), the survivor count by setting is: under setting [4], 2 of 6; under setting [5], 0 of 6; under setting [6], 0 of 6.

For `COc1ccccc1N=O`, the survivor count was 0 of 3 (T/C endpoint: mean survival time, dose: 100.0 mg/kg/injection, schedule: Q01DX001 (ip), vehicle: Klucel (hydroxypropylcellulose) (HPC)); 0 of 3 (T/C endpoint: mean survival time, dose: 200.0 mg/kg/injection, schedule: Q01DX001 (ip), vehicle: Klucel (hydroxypropylcellulose) (HPC)); 0 of 3 (T/C endpoint: mean survival time, dose: 400.0 mg/kg/injection, schedule: Q01DX001 (ip), vehicle: Klucel (hydroxypropylcellulose) (HPC)).

Take `Cc1cc2c3ccc(C)[n+](C)c3ccc2n1C`: the survivor count under setting [8] is reported as 0 of 6, the survivor count under setting [9] is 0 of 6 and the survivor count under setting [10] is given as 0 of 6.

Take `CC(=O)OCC1OC(N2C(=O)C=CC2=O)C(OC(C)=O)C1OC(C)=O` (stereo unspecified): the survivor count (T/C endpoint: mean survival time, dose: 25.0 mg/kg/injection, schedule: Q01DX005 (ip), vehicle: water) is reported as 0 of 3; the survivor count (T/C endpoint: mean survival time, dose: 50.0 mg/kg/injection, schedule: Q01DX005 (ip), vehicle: water) is on record as 0 of 3; the survivor count (T/C endpoint: mean survival time, dose: 100.0 mg/kg/injection, schedule: Q01DX005 (ip), vehicle: water) is reported as 0 of 3; the survivor count (T/C endpoint: mean survival time, dose: 200.0 mg/kg/injection, schedule: Q01DX005 (ip), vehicle: water) is reported as 0 of 3.

Regarding `COC(=O)C1(C)CCCC2(C)C3CCC(C)(CCOC(C)=O)CC3C(OC(C)=O)CC12` (stereo unspecified), the survivor count under setting [11] is given as 6 of 6 and the survivor count under setting [7] was 6 of 6.

For `CCCC[P+](C)(CC[P+](C)(c1ccccc1)c1ccccc1)c1ccccc1` (stereo unspecified), the survivor count by setting is: (T/C endpoint: mean survival time, dose: 25.0 mg/kg/injection, schedule: Q04DX002 (ip), vehicle: saline) 0 of 3; (T/C endpoint: mean survival time, dose: 50.0 mg/kg/injection, schedule: Q04DX002 (ip), vehicle: saline) 0 of 3; (T/C endpoint: mean survival time, dose: 100.0 mg/kg/injection, schedule: Q04DX002 (ip), vehicle: saline) 0 of 3.

With `COc1ccc(NC(=O)Nc2cc(Cl)ccc2Cl)cc1`, the survivor count under setting [4] is recorded as 6 of 6.

With `N#CCC(=O)NN`, under “T/C endpoint: mean survival time, dose: 300.0 mg/kg/injection, schedule: Q04DX003 (ip), vehicle: saline”, the survivor count is 2 of 6.

`CCCCC(C#N)C(=O)OCC` (stereo unspecified): under setting [3], the survivor count is listed as 1 of 3.

`COc1cc2cc[n+]3c(C)c4ccc(OC)c(OC)c4cc3c2cc1OC` (tested in a mixture with another compound): the T/C (T/C endpoint: mean survival time, dose: 10.0 mg/kg/injection, schedule: Q01DX009 (ip), vehicle: saline) was 106, 111 [5 of 6 alive], 119, 128 % of control; the T/C (T/C endpoint: mean survival time, dose: 20.0 mg/kg/injection, schedule: Q01DX009 (ip), vehicle: saline) was 101, 115 [5 of 6 alive], 126 [5 of 6 alive], 136 % of control; the T/C under setting [12] was 107, 125 [5 of 6 alive], 142 % of control; the T/C under setting [13] was 148 % of control [5 of 6 alive]. Besides, the survivor count is recorded as 5 of 6 under setting [12] and 2 of 6 under setting [13].

As to `O=C1N(CC2CO2)CCN1CC1CO1` (stereo unspecified), the T/C (T/C endpoint: median survival time, dose: 25.0 mg/kg/injection, schedule: Q01DX009 (ip), vehicle: saline) is 145 % of control.

For `NCS(=O)(=O)O`, the survivor count is 1 of 3 under setting [11] and 0 of 3 under setting [7].

As to `CC1=C(/C=C/C(C)(O)CC2=NC(C)(C)CO2)C(C)(C)CCC1` (stereo unspecified), the survivor count under setting [2] was 6 of 6.

For the compound `CCCCOC(=O)C=O`, the survivor count under setting [4] is 3 of 3.

For the compound `CCn1cnccc1=O`, the T/C (T/C endpoint: mean survival time, dose: 400.0 mg/kg/injection, schedule: Q04DX002 (ip), vehicle: saline) was 132 % of control [2 of 3 alive].

As for `O=c1[nH]cc(S(=O)(=O)Nc2ccccc2)c(=O)[nH]1`, the survivor count under setting [11] was 2 of 6.

For the compound `NC(=O)c1ncn(C2CCCC2)c1N`, the survivor count (T/C endpoint: mean survival time, dose: 100.0 mg/kg/injection, schedule: Q01DX001 (ip), vehicle: other) is given as 0 of 6; the survivor count (T/C endpoint: mean survival time, dose: 200.0 mg/kg/injection, schedule: Q01DX001 (ip), vehicle: other) is listed as 0 of 6; the survivor count (T/C endpoint: mean survival time, dose: 400.0 mg/kg/injection, schedule: Q01DX001 (ip), vehicle: other) is reported as 0 of 6.
